The source of these data is paper PMC10203282, “Structural analysis of an endogenous 4-megadalton succinyl-CoA-generating metabolon” (Communications Biology, 2023).

These are yes or no findings as the source states them, for the method shown. In cells and extracts the contact can be indirect. Binding calls can cover weak binding; strength is not graded here.

The test addresses dihydrolipoyl dehydrogenase (E3) (Chaetomium thermophilum (endogenous in the native cell extract)). The test is described as follows: cross-linking; BS3 (1 mM) crosslinking mass spectrometry directly in pooled SEC fractions 3-6 and 7-9 of the native lysate; FDR 2% at the peptide level.

B1: C. thermophilum protein E3BPo (KGD4 OGDHc subunit) (protein, UniProt P9WES8 1-135)
chain: MFGTKALRAAQHAVRTPSIKFIGKRTIPAVVDHTPQPHPASPTKTLPASFLSSHATFSVYRDHAQQFGPLRKTITPNAGIGGSPAVALGPVEPPQGVYFDRNDLPERFRRQPLTPDEIEAIETGGGHLLYRGSYL
In the case of B1, the binding result was “binds”.
